Our source for the binding values is PMC11163727.

Protein sequences, listed by entry. Tags and fused reporters are not part of them. Residues count along the entry.
UniProt Q15022: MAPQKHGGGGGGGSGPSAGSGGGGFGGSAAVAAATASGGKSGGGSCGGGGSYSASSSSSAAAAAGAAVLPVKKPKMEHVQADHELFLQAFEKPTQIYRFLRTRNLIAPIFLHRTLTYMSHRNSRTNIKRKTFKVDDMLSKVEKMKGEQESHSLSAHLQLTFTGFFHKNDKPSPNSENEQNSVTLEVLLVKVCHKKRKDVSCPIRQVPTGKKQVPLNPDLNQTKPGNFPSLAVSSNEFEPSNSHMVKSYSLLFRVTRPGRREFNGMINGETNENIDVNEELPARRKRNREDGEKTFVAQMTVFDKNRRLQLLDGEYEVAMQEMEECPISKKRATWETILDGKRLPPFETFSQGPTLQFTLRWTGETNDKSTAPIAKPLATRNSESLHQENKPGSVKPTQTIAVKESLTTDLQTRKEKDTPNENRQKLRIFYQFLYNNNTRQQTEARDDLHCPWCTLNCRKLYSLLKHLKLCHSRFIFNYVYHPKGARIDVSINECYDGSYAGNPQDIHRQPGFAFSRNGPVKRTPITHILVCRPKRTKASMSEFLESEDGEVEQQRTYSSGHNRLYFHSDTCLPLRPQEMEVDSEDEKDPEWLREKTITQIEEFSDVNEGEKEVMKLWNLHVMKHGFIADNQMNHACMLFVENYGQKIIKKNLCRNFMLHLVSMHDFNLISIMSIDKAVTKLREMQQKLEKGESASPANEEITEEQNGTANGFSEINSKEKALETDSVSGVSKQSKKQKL
UniProt Q15910: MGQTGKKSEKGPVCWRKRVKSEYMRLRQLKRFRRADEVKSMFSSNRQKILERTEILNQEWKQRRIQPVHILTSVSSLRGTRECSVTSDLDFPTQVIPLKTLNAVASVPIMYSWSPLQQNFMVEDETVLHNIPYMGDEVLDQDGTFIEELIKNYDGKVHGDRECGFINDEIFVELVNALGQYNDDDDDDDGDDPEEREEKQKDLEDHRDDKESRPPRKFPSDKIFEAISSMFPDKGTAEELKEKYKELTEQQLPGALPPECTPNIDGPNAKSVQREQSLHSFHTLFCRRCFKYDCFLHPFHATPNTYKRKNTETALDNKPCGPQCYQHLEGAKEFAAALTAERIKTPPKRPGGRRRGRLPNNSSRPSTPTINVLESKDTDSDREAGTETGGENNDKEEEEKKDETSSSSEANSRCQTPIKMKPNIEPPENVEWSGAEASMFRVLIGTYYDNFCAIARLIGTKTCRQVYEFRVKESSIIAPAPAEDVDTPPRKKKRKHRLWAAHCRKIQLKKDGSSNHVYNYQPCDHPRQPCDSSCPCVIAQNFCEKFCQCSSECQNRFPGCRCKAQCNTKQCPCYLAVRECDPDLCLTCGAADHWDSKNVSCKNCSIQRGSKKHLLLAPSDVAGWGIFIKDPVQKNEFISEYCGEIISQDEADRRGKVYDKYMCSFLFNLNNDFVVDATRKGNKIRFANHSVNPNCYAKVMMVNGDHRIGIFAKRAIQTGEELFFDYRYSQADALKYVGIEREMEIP
UniProt P08174, residues 35-353: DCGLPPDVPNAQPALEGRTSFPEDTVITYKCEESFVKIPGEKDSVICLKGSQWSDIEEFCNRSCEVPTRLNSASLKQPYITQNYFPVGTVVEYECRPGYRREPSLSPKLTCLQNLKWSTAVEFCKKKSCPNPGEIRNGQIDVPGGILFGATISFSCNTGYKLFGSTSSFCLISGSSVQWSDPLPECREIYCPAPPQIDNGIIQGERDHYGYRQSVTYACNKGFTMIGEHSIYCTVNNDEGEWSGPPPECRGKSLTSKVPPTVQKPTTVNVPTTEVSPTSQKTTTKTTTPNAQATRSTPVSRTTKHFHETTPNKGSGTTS

In assay [1] the target is T1, Zinc finger MYND domain-containing protein 8 (ZMYND8) (human (endogenous in CP70)) (UniProt Q9ULU4).
T1 sequence: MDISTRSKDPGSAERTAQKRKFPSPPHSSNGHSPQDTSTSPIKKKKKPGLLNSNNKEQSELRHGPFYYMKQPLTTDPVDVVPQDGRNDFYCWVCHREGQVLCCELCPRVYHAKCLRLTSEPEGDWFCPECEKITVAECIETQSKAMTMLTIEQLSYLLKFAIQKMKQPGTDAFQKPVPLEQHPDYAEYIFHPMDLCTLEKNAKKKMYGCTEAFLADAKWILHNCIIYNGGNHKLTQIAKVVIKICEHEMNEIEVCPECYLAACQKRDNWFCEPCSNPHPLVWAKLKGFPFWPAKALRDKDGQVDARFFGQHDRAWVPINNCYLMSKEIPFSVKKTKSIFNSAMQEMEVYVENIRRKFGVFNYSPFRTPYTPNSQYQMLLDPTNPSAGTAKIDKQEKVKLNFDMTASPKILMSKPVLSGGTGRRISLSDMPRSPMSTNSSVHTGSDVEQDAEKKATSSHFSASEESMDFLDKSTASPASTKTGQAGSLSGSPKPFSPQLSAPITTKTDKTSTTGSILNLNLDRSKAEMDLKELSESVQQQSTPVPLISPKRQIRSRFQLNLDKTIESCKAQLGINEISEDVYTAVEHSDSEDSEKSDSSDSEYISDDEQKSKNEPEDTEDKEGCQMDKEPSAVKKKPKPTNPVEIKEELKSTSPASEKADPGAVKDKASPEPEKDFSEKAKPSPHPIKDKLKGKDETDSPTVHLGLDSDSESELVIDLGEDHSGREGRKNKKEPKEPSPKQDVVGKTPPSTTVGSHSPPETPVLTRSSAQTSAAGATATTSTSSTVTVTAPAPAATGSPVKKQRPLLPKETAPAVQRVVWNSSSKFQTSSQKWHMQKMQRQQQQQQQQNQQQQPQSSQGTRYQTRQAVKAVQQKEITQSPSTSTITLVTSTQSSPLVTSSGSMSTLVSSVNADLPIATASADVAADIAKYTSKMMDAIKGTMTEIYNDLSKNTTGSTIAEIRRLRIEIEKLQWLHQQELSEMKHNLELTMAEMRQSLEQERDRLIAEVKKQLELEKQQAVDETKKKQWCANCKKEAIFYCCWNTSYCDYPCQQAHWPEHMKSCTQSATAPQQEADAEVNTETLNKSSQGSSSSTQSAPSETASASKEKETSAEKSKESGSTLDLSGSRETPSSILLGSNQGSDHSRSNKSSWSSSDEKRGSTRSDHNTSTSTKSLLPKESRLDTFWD
The assay can be described thus: co-IP; CP70 cells transduced with empty vector or CD55, lysed in IP lysis buffer; IP with 3 ug CD55 or ZMYND8 antibody overnight at 4 C, magnetic A/G beads, immunoblot. A general note: A western blot detects proteins with antibodies after separation by electrophoresis.

Assay [2] addresses T1, Zinc finger MYND domain-containing protein 8 (ZMYND8) (human (endogenous in CP70)). Briefly: co-IP; nuclear fractions of CP70 CD55 OE cells; IP with ZMYND8, SUZ12 or EZH2 antibody, immunoblot.
The target in assay [3] is SUZ12 (human (endogenous in CP70)) (UniProt Q15022). The description is as above.
For assay [4], the target named is Enhancer of zeste homolog 2 (EZH2) (human (endogenous in CP70)) (UniProt Q15910). Described as above.

Results are given in words; binding and its absence hold for the method and conditions named. In cells and extracts the contact can be indirect. Some entries that bind do so weakly or less than the wild type.

In the case of “CD55 (complement decay-accelerating factor), endogenous in CP70 cells (from UniProt P08174 35-353)”, the binding result in assay [1] was “binds”.

Take “Wild type full length CD55 overexpressed in CP70 cells (CD55 OE) (from UniProt P08174 35-353)”: the binding result in assay [2], in assay [3], in assay [4] and in assay [1] was “binds” throughout.
